This passage reports binding results from paper PMC7532662.

This assay addresses T1, SYTL4-GFP (UniProt Q96C24).
T1 sequence: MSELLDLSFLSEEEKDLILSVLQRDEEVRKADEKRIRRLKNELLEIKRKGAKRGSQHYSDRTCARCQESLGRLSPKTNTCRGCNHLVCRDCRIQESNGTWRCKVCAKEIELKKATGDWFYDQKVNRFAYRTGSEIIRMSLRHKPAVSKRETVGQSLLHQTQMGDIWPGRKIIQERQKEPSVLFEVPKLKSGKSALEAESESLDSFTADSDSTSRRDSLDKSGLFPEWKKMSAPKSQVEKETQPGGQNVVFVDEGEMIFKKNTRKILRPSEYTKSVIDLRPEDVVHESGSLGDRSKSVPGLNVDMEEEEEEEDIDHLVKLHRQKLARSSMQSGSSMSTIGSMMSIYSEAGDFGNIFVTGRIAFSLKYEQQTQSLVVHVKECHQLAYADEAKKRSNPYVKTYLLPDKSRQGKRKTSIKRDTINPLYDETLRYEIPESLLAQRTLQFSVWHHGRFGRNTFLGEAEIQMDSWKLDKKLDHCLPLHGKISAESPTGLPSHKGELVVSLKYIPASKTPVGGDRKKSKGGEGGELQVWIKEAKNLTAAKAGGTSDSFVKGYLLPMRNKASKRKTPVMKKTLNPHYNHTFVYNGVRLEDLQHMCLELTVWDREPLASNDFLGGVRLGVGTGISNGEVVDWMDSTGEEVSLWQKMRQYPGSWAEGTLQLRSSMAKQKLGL
The assay can be described thus: co-IP; lysates of MDA-MB-231 (SYTL4-GFP) or 293T (D1/D2/D3-GFP) cells in Western/IP lysis buffer, anti-GFP nanobody-coated agarose, overnight at 4 °C, western blot. (In western blotting, separated proteins are transferred to a membrane and probed.)

Results are given in words; binding and its absence hold for the method and conditions named. Binding seen in cells or lysates may run through a third protein. A result given as binding can be weak or reduced; the word gives no strength. Sequences can lack the tags named with a protein.

Consider α-tubulin, endogenous, for which the binding result is recorded as “binds”.
